These are yes or no findings as the source states them, for the method shown. Binding seen in cells or lysates may run through a third protein. Some entries that bind do so weakly or less than the wild type.
Legend:
[1] = biological target: p21-GFP C41S (homozygous CRISPR-Cas9 knock-in in RPE-1 p21-GFP cells, clone #1) (human (endogenous in RPE-1)) (UniProt P38936); assay: pull-down
[2] = biological target: p21-GFP WT (endogenous p21 tagged with GFP in RPE-1 cells) (human (endogenous in RPE-1)) (UniProt P38936); assay: pull-down

Chains of the proteins cited; added tags and fusions are not shown. Lines headed by an entry give the natural chain unless they say otherwise; changes in a name come on top.
UniProt P38936: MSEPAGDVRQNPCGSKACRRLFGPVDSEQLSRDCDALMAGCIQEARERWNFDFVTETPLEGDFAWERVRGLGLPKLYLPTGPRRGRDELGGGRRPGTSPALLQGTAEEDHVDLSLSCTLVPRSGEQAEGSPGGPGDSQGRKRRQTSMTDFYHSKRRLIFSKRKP
UniProt P14635: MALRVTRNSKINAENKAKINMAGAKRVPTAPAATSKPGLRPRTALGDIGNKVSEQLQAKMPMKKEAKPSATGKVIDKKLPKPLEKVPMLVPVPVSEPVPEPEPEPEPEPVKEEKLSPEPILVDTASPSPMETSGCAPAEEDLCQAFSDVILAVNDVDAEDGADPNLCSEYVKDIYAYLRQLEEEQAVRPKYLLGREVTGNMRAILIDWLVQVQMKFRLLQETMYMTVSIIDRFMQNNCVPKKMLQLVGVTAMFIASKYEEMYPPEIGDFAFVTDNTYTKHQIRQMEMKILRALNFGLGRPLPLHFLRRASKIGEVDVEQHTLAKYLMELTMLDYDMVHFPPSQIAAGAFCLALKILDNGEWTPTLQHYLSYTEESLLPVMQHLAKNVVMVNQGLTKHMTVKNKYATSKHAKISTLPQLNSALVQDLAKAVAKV
UniProt P24385: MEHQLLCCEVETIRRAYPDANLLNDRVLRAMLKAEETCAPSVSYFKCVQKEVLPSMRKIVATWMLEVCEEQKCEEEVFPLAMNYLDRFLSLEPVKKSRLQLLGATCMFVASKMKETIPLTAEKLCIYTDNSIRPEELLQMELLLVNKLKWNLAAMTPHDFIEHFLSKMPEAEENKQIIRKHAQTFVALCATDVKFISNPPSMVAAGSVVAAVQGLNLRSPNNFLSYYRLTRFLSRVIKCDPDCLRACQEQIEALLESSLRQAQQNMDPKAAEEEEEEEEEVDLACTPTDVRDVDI

binding [1] | binding [2] | Substance
binds | binds | cyclin B1 (from UniProt P14635 1-433)
binds | binds | cyclin D1 (from UniProt P24385 1-295)

From article doi:10.1101/2024.09.14.613007
